PubChem BioAssay AID504764 – Drosophila RNAi Screening Center, 2011
In all, the deposit lists about 22,000 reagents; below is an unselected part of those with a known target gene and a result. In the full data, 403 (1.9%) got an active call. 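Unnormalised raw counts per well; ratio z-scores behind the hit calls and whether each hit raises or lowers signal are not deposited.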 A plus sign joins genes that one reagent is predicted to hit. The record does not give: the amount of reagent.

Aim: 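Genes whose knock-down alters Notch-dependent transcription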 (primary screen)
System: Drosophila Kc167 cells
Reagents: long dsRNA against Drosophila genes
Timing: about 5 days (4 days dsRNA, then 24 h after transfection)
Conditions: transfection of constitutively active membrane-tethered Notch lacking the extracellular domain, read 24 h later
Read-out: 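Firefly luciferase from an E(spl)m3 reporter with active Notch, plus control-promoter and uninduced reporter wells for normalisation; unnormalised counts, duplicate wells a and b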
Direction: induced reporter light, run 1, well a and induced reporter light, run 1, well b: higher = more light from the Notch target reporter with active Notch; control promoter light, run 1, well a and control promoter light, run 1, well b: higher = more light from the viral control promoter (cell number, transfection, viability); uninduced reporter light, run 1, well a: higher = more light from the Notch target reporter without active Notch
Call rule: 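Wells with low control signal or poorly matching duplicates excluded; duplicates averaged; per source plate, z beyond ±2 for induced/control log2 ratio or beyond ±1.8 for induced/uninduced marks a hit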
Meaning of the calls: active = modifier hit (raised or lowered Notch signal); inactive = not a hit

gene knocked down | DRSC id | induced reporter light, run 1, well a | induced reporter light, run 1, well b | control promoter light, run 1, well a | control promoter light, run 1, well b | uninduced reporter light, run 1, well a | outcome
Rsod (GeneID 43586) | DRSC15424 | 91300 | 1.01e5 | 1.77e5 | 1.47e5 | 10682 | inactive
mtTFB2 (GeneID 41228) | DRSC15519 | 1.04e5 | 1.63e5 | 1.51e5 | 1.64e5 | 3370 | inactive
CG12024 (GeneID 38243) | DRSC08229 | 93150 | 99370 | 1.63e5 | 1.67e5 | 9355 | inactive
fidipidine (GeneID 36808) | DRSC07618 | 1.76e5 | 1.07e5 | 2.45e5 | 1.79e5 | 11455 | inactive
Unc-115b + p24-2 | DRSC16492 | 1.98e5 | 1.58e5 | 1.12e5 | 96580 | 11885 | inactive
Obp56h (GeneID 37271) | DRSC06433 | 27390 | 26275 | 41360 | 33840 | 4342 | inactive
CG5326 (GeneID 42655) | DRSC13568 | 65245 | 65440 | 78250 | 75610 | 9355 | inactive
CG5326 (GeneID 42655) | DRSC15770 | 1.66e5 | 1.69e5 | 1.94e5 | 1.95e5 | 15215 | inactive
CG33128 (GeneID 326263) | DRSC00294 | 1.43e5 | 94335 | 99025 | 69270 | 9955 | inactive
CG7465 (GeneID 38553) | DRSC08592 | 2.04e5 | 1.45e5 | 2.01e5 | 1.68e5 | 9530 | inactive
sel (GeneID 36046) | DRSC06232 | 2.15e5 | 1.35e5 | 2.01e5 | 1.73e5 | 13560 | inactive
CARPA (GeneID 31687) | DRSC17905 | 1.63e5 | 1.35e5 | 2.85e5 | 2.58e5 | 10178 | inactive
CARPA (GeneID 31687) | DRSC21633 | – | – | – | – | – | inactive
mAChR-A (GeneID 37892) | DRSC04702 | 1.22e5 | 1.34e5 | 1.44e5 | 1.30e5 | 9645 | inactive
CG8519 (GeneID 38745) | DRSC10985 | 2.96e5 | 2.25e5 | 3.33e5 | 3.17e5 | 14690 | inactive
TotB (GeneID 42474) | DRSC15842 | 1.53e5 | 1.48e5 | 1.99e5 | 1.64e5 | 11505 | inactive
IP3K2 (GeneID 32285) | DRSC19500 | 1.52e5 | 1.26e5 | 2.00e5 | 2.00e5 | 9120 | inactive
IP3K2 (GeneID 32285) | DRSC19747 | 1.20e5 | 1.31e5 | 2.92e5 | 2.35e5 | 8640 | inactive
alrm (GeneID 43074) | DRSC14436 | 1.52e5 | 1.32e5 | 1.98e5 | 1.87e5 | 11260 | inactive
Acsl (GeneID 46068) | DRSC07252 | 1.53e5 | 1.66e5 | 1.74e5 | 1.79e5 | 14370 | inactive
CG34188 (GeneID 5740108) | DRSC05549 | 1.62e5 | 1.71e5 | 2.74e5 | 2.58e5 | 18290 | inactive
CG12708 (GeneID 32502) | DRSC19490 | 63020 | 61520 | 42730 | 47635 | 8880 | inactive
CG17600 (GeneID 33141) | DRSC20638 | 83255 | 73325 | 1.12e5 | 1.32e5 | 9550 | inactive
CG17600 (GeneID 33141) | DRSC20640 | 66020 | 93465 | 73530 | 1.03e5 | 8210 | inactive
CG10801 (GeneID 31314) | DRSC17761 | 1.57e5 | 1.35e5 | 2.34e5 | 2.26e5 | 10735 | inactive
Ho (GeneID 41407) | DRSC14939 | 1.30e5 | 1.31e5 | 1.01e5 | 81260 | 9380 | inactive
Pig1 (GeneID 31303) | DRSC18698 | 75060 | 63155 | 48970 | 44140 | 14340 | inactive
gudu (GeneID 34014) | DRSC02820 | 78435 | 52740 | 80620 | 59815 | 3585 | inactive
betaNACtes4 (GeneID 32389) | DRSC19801 | 71935 | 68605 | 1.01e5 | 93245 | 12950 | inactive
CG10345 (GeneID 42017) | DRSC14138 | 1.55e5 | 1.45e5 | 1.64e5 | 1.77e5 | 12370 | inactive
galla-2 (GeneID 39221) | DRSC10936 | 1.42e5 | 1.15e5 | 1.49e5 | 1.74e5 | 6392 | inactive
CG11293 (retired record) (GeneID 37745) | DRSC04098 | 2.16e5 | 1.76e5 | 2.05e5 | 1.91e5 | 15150 | inactive
rig (GeneID 37335) | DRSC06053 | 93630 | 86555 | 1.44e5 | 2.17e5 | 6515 | inactive
rig (GeneID 37335) | DRSC06400 | 1.86e5 | 1.38e5 | 2.64e5 | 2.96e5 | 9555 | inactive

Single entries from above.
CG10801 (GeneID 31314) [DRSC17761], uninduced reporter light, run 1, well a: 10735
CG34188 (GeneID 5740108) [DRSC05549], control promoter light, run 1, well b → 2.58e5
For “induced reporter light, run 1, well a”, Rsod (GeneID 43586) [DRSC15424] shows 91300
